Laboratory results taken from PubChem BioAssay AID272 (DTP/NCI, 2004).
The list does not hold the whole screen: it gathers some chemical classes. Other doses and runs of a compound may be missing. T/C gives the treated animals as a percentage of the vehicle group. Some T/C values are marked as having no survivor count here; that says nothing about deaths at the dose. Schedules are NCI's codes, read here as Q, the interval in days (D) or hours (H), X, the number of doses. Additions like (4×) give the number of equal values in this list. Some entries hold several experiments; the results are listed from low to high. Where survival is the endpoint, the PubChem record calls one and a half times the control and up active, and a quarter to a half above the control has no call in these data; cut-offs in other NCI protocols can differ.

Tested on: Lewis lung carcinoma i.m., BDF1 mice, T/C %
Assay: NCI In Vivo Anticancer Drug Screen. Data for tumor model Lewis Lung Carcinoma (intramuscular) in B6D2F1 (BDF1) mice
Details: vehicle: saline
Method: The antitumor activity of compounds was measured in mice bearing transplantable tumors. Survival or tumor size were measured and the results are expressed as the measurement made in the treated group (T) divided by the measurement made in the vehicle treated control group (C). The tumor model used in this assay is Lewis Lung Carcinoma (intramuscular) in B6D2F1 (BDF1) mice

## CN(CCCl)CCCl
T/C endpoint: mean tumor weight, dose: 0.03 mg/kg/injection, schedule: Q01DX009 (ip), evaluation day not shown, higher T/C = larger tumour
  T/C: 62 % of control [survivor count not shown] (2×)
T/C endpoint: mean tumor weight, dose: 0.05 mg/kg/injection, schedule: Q01DX009 (ip), evaluation day not shown, higher T/C = larger tumour
  T/C: 100 % of control [survivor count not shown] (2×)
T/C endpoint: mean tumor weight, dose: 0.06 mg/kg/injection, schedule: Q01DX011 (ip), evaluation day not shown, higher T/C = larger tumour
  T/C: 52 [survivor count not shown], 76 [survivor count not shown], 154 % of control [survivor count not shown]
T/C endpoint: mean tumor weight, dose: 0.08 mg/kg/injection, schedule: Q01DX009 (ip), evaluation day not shown, higher T/C = larger tumour
  T/C: 44 % of control [survivor count not shown] (2×)
T/C endpoint: mean tumor weight, dose: 0.13 mg/kg/injection, schedule: Q01DX011 (ip), evaluation day not shown, higher T/C = larger tumour
  T/C: 52 [survivor count not shown], 54 [survivor count not shown], 129 % of control [survivor count not shown]
T/C endpoint: mean tumor weight, dose: 0.14 mg/kg/injection, schedule: Q01DX009 (ip), evaluation day not shown, higher T/C = larger tumour
  T/C: 69 % of control [survivor count not shown] (2×)
T/C endpoint: mean tumor weight, dose: 0.24 mg/kg/injection, schedule: Q01DX009 (ip), evaluation day not shown, higher T/C = larger tumour
  T/C: 49 % of control [survivor count not shown] (2×)
T/C endpoint: mean tumor weight, dose: 0.25 mg/kg/injection, schedule: Q01DX011 (ip), evaluation day not shown, higher T/C = larger tumour
  T/C: 26 [survivor count not shown] and 86 % of control [survivor count not shown]
T/C endpoint: mean tumor weight, dose: 0.5 mg/kg/injection, schedule: Q01DX011 (ip), evaluation day not shown, higher T/C = larger tumour
  T/C: 45 % of control [survivor count not shown]
T/C endpoint: median survival time, dose: 0.05 mg/kg/injection, schedule: Q01DX009 (ip), higher T/C = longer survival
  T/C: 89 [survivor count not shown] and 91 % of control [survivor count not shown]
T/C endpoint: median survival time, dose: 0.06 mg/kg/injection, schedule: Q01DX011 (ip), higher T/C = longer survival
  T/C: 94 [survivor count not shown], 101 [survivor count not shown], 103 % of control [survivor count not shown]
T/C endpoint: median survival time, dose: 0.08 mg/kg/injection, schedule: Q01DX009 (ip), higher T/C = longer survival
  T/C: 97 [survivor count not shown] and 104 % of control [survivor count not shown]
T/C endpoint: median survival time, dose: 0.12 mg/kg/injection, schedule: Q01DX011 (ip), higher T/C = longer survival
  T/C: 109 [survivor count not shown] and 121 % of control [survivor count not shown]
T/C endpoint: median survival time, dose: 0.13 mg/kg/injection, schedule: Q01DX011 (ip), higher T/C = longer survival
  T/C: 94 [survivor count not shown], 102 [survivor count not shown], 103 [survivor count not shown], 114 % of control [survivor count not shown]
T/C endpoint: median survival time, dose: 0.14 mg/kg/injection, schedule: Q01DX009 (ip), higher T/C = longer survival
  T/C: 117 [survivor count not shown] and 121 % of control [survivor count not shown]
T/C endpoint: median survival time, dose: 0.24 mg/kg/injection, schedule: Q01DX009 (ip), higher T/C = longer survival
  T/C: 97 [survivor count not shown] and 104 % of control [survivor count not shown]
T/C endpoint: median survival time, dose: 0.25 mg/kg/injection, schedule: Q01DX011 (ip), higher T/C = longer survival
  T/C: 100 [survivor count not shown], 110 [survivor count not shown], 118 [survivor count not shown] (2×), 148 % of control [survivor count not shown]
T/C endpoint: median survival time, dose: 0.5 mg/kg/injection, schedule: Q01DX011 (ip), higher T/C = longer survival
  T/C: 88 % of control [survivor count not shown]
